Results are given in words; binding and its absence hold for the method and conditions named. Binding seen in cells or lysates may run through a third protein. A yes stands for co-enrichment or nearness to the bait. Other partners may have been found.
T1: Cdc10-mCherry (C. neoformans) (UniProt J9VMT9)
T1 sequence: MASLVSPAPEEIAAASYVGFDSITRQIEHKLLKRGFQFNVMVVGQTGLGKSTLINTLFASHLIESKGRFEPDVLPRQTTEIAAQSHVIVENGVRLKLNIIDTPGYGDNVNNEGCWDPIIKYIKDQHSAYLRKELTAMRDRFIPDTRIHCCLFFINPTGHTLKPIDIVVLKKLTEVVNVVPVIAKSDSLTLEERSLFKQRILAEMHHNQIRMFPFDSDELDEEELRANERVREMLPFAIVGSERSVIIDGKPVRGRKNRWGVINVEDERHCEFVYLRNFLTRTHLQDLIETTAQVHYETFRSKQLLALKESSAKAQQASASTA

T2: Cdc3-mCherry (C. neoformans) (UniProt J9VUF2)
T2 sequence: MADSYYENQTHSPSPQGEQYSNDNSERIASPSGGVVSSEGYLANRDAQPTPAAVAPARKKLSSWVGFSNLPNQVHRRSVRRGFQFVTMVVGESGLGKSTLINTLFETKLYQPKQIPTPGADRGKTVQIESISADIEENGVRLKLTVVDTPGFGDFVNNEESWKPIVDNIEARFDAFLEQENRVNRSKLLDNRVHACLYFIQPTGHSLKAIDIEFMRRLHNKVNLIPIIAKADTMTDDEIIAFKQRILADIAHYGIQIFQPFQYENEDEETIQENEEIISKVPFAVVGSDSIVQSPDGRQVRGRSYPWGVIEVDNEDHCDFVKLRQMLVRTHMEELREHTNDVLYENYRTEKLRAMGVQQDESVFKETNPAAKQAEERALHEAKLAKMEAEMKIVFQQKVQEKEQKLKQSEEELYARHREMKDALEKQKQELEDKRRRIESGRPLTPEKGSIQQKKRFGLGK

B1: Uncharacterized protein (CNAG_03045) (protein, UniProt J9VPM1 1-340)
chain: MPSSLVLFTTSQTPLAVRYPHPRKPILNVPPLLHRSLHNALDRDQPSAAFVGNAGGVEDVAQGTLYIPNLEELVKPSPLAVPNGHASPELVHDNIELTVKVHLIVSPTSTPTASARADWVNEALQVFRKAKRLPLPDNLLIGFNGIDYRGIKTATGAEGSVAPDTEVVPAELEQEVLKVWERVFAEQDKLVKEGGKLGSLYAPQGLLRKLTEREGGRRVKVNALDTPDCHHLPKDYTGYARKNGVELWAGGGGEGSDPLPSAHLQNVLQEFLPAIRKIVPEQQAKEFSKLDSLIPLRQDGLKFEDVETGVQVRWVLSYTVLSTTRNVVEDKGYIVAADLV
B2: TPR_REGION domain-containing protein (protein, UniProt J9VGX5 1-1148)
chain: MEGESQTNMDATLTELSNLLAELEEQPENVFFLRRQIVLMRSLGMTAEVLDAYAKLSSLIMLQEEEWLTYLDNFVNSVVKPLDVTAFMDIVEKYVQAERDYLSLPIILQHVKFIIACFKAGQDPQSSEEALEVPVDEELAAFLDVGTTRGLIKAATDLGNGLLSESQQLWQLWIDWELGLMEGAKGTEKQEAIESVHNVYLQRLAIPHSTIDQTTSSYSSFCSTYCNEEYEQRLVKATEVSQTAKYKWSGERRAGKSREDFELLILYATDLAAQAQVFVEYYKWESSARIKPTAHGKGPNVDITLTQAVFERAVVPYAKLAAMAQSSLDEINLKLQKQSKSKKSKGKGKKKEGEPEATTLAEQKQAMEETIRAYKDAEAGIWAKYASWSEEAIHAMTGTKIRKNAVRAVPHCGGAWADLFQDTEKVTADLQQLDSLFETALSLGLLFIPEGRTTEITELFLARAAYEARLASVNVALGAVHPALATITRGLEAITKVNKSGDASLKLEKFALDWAETIAPEYLDQTLLVLDKPVKCRSSSYQFALLRANVEIRRDDVDRAREIFEKFIQRTDLDWPEAIYEAFIQLEVVHGTPQTLQDTRKKIEREQEKVAKRREKAAAEASAYQEQYTAAAIQGAAAGAVDAVMGDAELKGVDPTQEAVDLAVAASADLSAAPVAVGQSGKDNAEEVHLKRDREHTTVLVTGLPKGCTPERIENFFFECGPVRETTILVDEDAMHDSALVEFKKAEAIPDVLEKDKKKFEGTPVSISMLWRSTLFVTNFPREMDDGGIRNLLEQYGRILETRWPSRKYADSRRFCYVTMESPAAAQEALVLHGYKVPGASTNFGLTVLISDPSAKTKRSDAANSTLFVGGLNNKSTEVDIKGLFNEFGTISHIKLGWDPLKRICKGFAFVEMSTEAEAKAALKLHGTQYKGKYLKVEISDPNHANKKSQERKPDQAAEKRLRSVRLSNLPEDTQEGLLQQALEKIVPVRRLEMFVRSHEALAELESQADVGKLLLRTEPFIFNGNEITFTEQNKRPPPAKEARDDSGNDKDVKSSSAPSGPSTMFAPRAARKALAKPRPTAVAAAKAVAASPGIPAQGQDDFRALVAAKNKQREEKLNIAREGSGTSGEKRKLEDGQEGEESKRTRT
B3: Catalase (protein, UniProt J9VH55 1-694)
chain: MSQMLNQAANMVTGDAKYRQMAENTIDQDDKTPYTTYFGVKVSDTDNSLRAGARGPTLLEDFHNREKIQHFDHERIPERVVHARGAGAFGEFKLHTPLTDITTAKVLTDTSKVVPAYVRFSAVAGFRGSADTSATTCPCSSLMDAIKFPDVIHAVQPEPHNQIPQAQTAHDNAWDFMSLHKPALHMQQWLTSDRAVPRSYRMMQGFGVHTFRLINEEGKSTFVKYHWIPHLGTHSLVWDEALKVAGQDPDFHRRDLWDAIEVGAYPKWDLGVQLIKEEDEHKFDFDLLDATKLIPEELVPVQKIGTLTLNRNPVDYFSEVEQVAFCTQHIVPGMDFTDDPLLAGRNFSYPDTQVSRLGINWKDIPVNRPICPFMTTMREGQMSMFSKNNRTPYHPNRNENLPLTSPKQGGFKSYPAKVSGIKERVQAPKFNDHSSQATLFWNSMSDVEKKHIIDAYKFELSHCADNLVIQNVINRINEIDHGLATAVHSGFPHLSLPEAKPNHGKRTEYLSQITGKNQTFTAAGRKIGIFLVPGFVYSQVAPLLAAFEAAGCMVKFVGPTLGPVKASDGQSFTTEFTFEGCRSTYFDALIFAGGPDDAFVSKLKIGRLIHAAREAYMHLKAIGAVGNATQWLVETCIPGDFSPTVKTESSVVQENGVVFAPANPTLHSAQFAKQFLETVANHRVWDREVSHIAA
B4: Reverse transcriptase domain-containing protein (protein, UniProt J9VKK4 1-767)
chain: MDDNHFHLQDHEHTPNHDDTAEALIASLKAVINDPNSHNQQPSDIHDHEADPESSQQPQHHEQAQNTLNAFTAEQHSNPVHVGLRKSLAQLTHLTNAHQGLLDELNGAGAIQNLAQNLKALKEGNKRQIDVLKELTGQIKASELGVDLSVPFSEQLDPELSPVVLRSDYDALKAQYDALLVSGSPSSVATGKRLAGARKSRAPKSVATVTTIEPETLRAVEDDKRASHSSTPTGGVEGRKKRSIRLEHLVHKMANRRLGVEYTVSNFESKGSRDLPDPATHPLTAEESPNGVDEFRPHFGADINASTVKPFIDRVIEDVWEAWQSGQGDEDVEADRQKVFDAVKIYWTRLSKRYDEQQHRERGEIHRDELSRRKQNTYRRQQSLLMRRTAHFDWSPLNACRLRALYRTLLTIDFAAQTQDQPDPKRAYTPEEWYAYRRLACGPRSGEAHEVIDQFWLSPAVRTLLLILDEFAQDQQARAKKKGKPKQPNPIFHLPAHLWDRSTLPTLRPKDNDGLPLSGSPGIILFKFHVDEQVQRENPDWAKGLYDNPPIPPEDEALPKLSELLSQPAYAGLRQIVHEAKDRANPKMLTNEQVEQINSGVDLSLLEGLNIPPAGLEGEGEYMTFAALTQLASNSEVNSSRPSGLPEQLIVHDDAPNTPDHKYVHSAFPSSSITAATPLATHISGVGPSPIPLPYTGTDASSAARSGTSMRARKLGKRAASEFPGGAATPVPKRQRVVGALENEDEEDRDAEVEEVLGGDAAFLEEM
B5: CENP-V/GFA domain-containing protein (protein, UniProt J9VH97 1-137)
chain: MPVTLTGGCFCTALTYRVSLDSLDDARVTLCHCSSCKKAFGGDFGLTAKIPVSSFRYTQGQATEHKTKNGVKREFCGTCGSYILEYGEAAANDFRYIVVGSLDEPAVLPPKGEFFCKNRLEWMPQIPNTFQKQEIKE
B6: AAA domain-containing protein (protein, UniProt J9VKK1 1-972)
chain: MTEESSSIIADNSTATKSPTTFTSPNGTVLTFQSAGNYLSSWLQTIGHSPDYSMEDVLPEGYIPPPLSKKAAKKAALGDANVYAGPPPGSMRVCTVNLPFYGPIRSTPWANKALAKQSASFEAVKELHKHGEVDDNFQATPLRPKKKGDTKGTKSRCHDTWEIKKAVIRDQLPRPTGGVGHGHYDYQTTPEFWSTCPPFNPRSLHASILQLSPAGEGKYDHPECRLMCMLTSRPLPVFKKSNQVEVRMAVGEQPPLCATMRVINGGKMDTFYSGKLDQALVFTEKLMRAEVQKAFKTDLRKVKWLLLPLRREYVPPTKEQLVAGKSVSLKLDDISWKEVDAVTDGALTLPFTFDDYDSLKREIVDSLATAPSEMSRRSYIIDVRQDLHPLSSHPDVPGKTICDVLKEGNVTLPQLTEPSQPILEVETVNLAKTGSYISTAAMAAEERPRQYLVPEFEHRHCIPASVFRTCTVIPYFIFHLESMLIAEEMSAKEFNSILGPELALQAITAPEGLNVPRWTYERLEILGDTLLKFMTTLHFYLLGGGADSEDDMNKVWQDRHMLISNRTLTANAVKQGLVKYVRNKKFKVKDWTPRDWELDQPPGQFAPKKAMPTSFDGPESRMLGDKVIADIIEAIIGASYMPNKDLDSVIAILHNLMVPLNLFKTWDDVKHVLPPPKAEEPKNPDVPAYISFFKKSSYEVLGYKFKDNKKFEDAFSLAPAQQTRRIRERYKMMGNALLDLYVIELLMDNYPDEGPASLSIMKLSRTTEGLRCALAVELGMPDLIIDGDDHSRSELKRATHFMQKAKAQADEDLNENEQGGVHYWEEVVISRVNGSIIEIVFGAIFEDCNFSLEPTQKIFTERIAPFLAKYCRGPNGFDPHPKAMLTRWMQKKGCQFWNLTAEGPKLNQGVVTCHDKEIARECAFTQHVTIRHVCLAALKRLRDENYIEEICNCPSFKKVIPDDEKIFGKKRA

Columns and labels:
[1] = molecular target: T1, Cdc10-mCherry (C. neoformans); assay: affinity purification with mass spectrometry
[2] = molecular target: T2, Cdc3-mCherry (C. neoformans); assay: affinity purification with mass spectrometry

Binder | binding [1] | binding [2]
B1 | binds | binds
B2 | binds | binds
B3 | binds | binds
B4 | binds | binds
B5 | binds | binds
B6 | binds | binds

From PMC11651612
